# Laboratory results published in PubChem BioAssay AID445 (National Center for Advancing Translational Sciences (NCATS), 2006).
# The other results are listed elsewhere or left out. These are further read-outs of the screen, such as a control signal, another cell line or another target. No call is given for them. Compounds called inactive in the main read-out are mostly missing here. Words in brackets tell the shape of the fitted curve; partial curves, single points and poor fits give uncertain potencies.
# Assay: IkB Signaling
# Settings: ABC-DLBCL IkBa-CBG/CBR dual luciferase ratio (green luciferase fused to IkBa over red control in OCI-Ly3 lymphoma cells), 4 h; measured here: control luc red channel unless noted
# Outline: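 Curves were fitted separately to fusion (green), unfused (red) and ratio luminescence, then classed by r2, magnitude and activity. Cells: OCI-Ly3, 4 h compound plus doxycycline at 37C; 10 uM MG-132 defined full response.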
row,SMILES,AC50
1,Cc1ccc(-c2nc(-c3cc4cccc(OCc5cccc(C)c5)c4oc3=O)no2)cc1,"3.16 µM [falling, partial curve]"
2,CCc1c(C)nc2nncn2c1Nc1ccc(C(C)C)cc1,"31.6 µM [falling, partial curve, poor fit]"
3,Cc1cccc(N2CC(C)Cn3c2nc2c3c(=O)n(CC(=O)OCc3ccccc3)c(=O)n2C)c1 (configuration not stated),"0.794 µM [falling, full curve]"
4,O=C(c1ccc2c(c1)N(Cc1ccccc1F)C(=O)c1ccccc1S2=O)N1CCN(c2ccccc2)CC1 (configuration not stated),"12.6 µM [falling, partial curve]"
5,CCCCN1CCCc2cc(CN(CCCN3CCOCC3)C(=O)Nc3ccc(OCC)cc3)ccc21,"6.31 µM [falling, single point]"
6,CCN(CC)S(=O)(=O)c1ccc2c(c1)N(CC(=O)N1CCN(c3ccccc3F)CC1)C(=O)CO2,"31.6 µM [falling, single point]"
7,CC1CN(c2nc3c(c(=O)n(Cc4ccc(Cl)c(Cl)c4)c(=O)n3C)n2C)CC(C)O1 (configuration not stated),"15.8 µM [falling, partial curve]"
8,CCOC(=O)c1ccc(Nc2ncnc3c2cnn3-c2cccc(Cl)c2)cc1,"0.631 µM [falling, full curve, poor fit]"
9,CCN(C(=O)c1cc2c(s1)-c1ccccc1OC2)c1cc(Cl)ccc1OC,"20 µM [falling, partial curve]"
10,CCCCC(c1nnnn1CC1CCCO1)N1CCN(c2nc3ccccc3s2)CC1 (configuration not stated),"39.8 µM [falling, single point]"
11,CCOC(=O)Cn1nnnc1CN(Cc1ccccc1)Cc1cc2cc(CC)ccc2[nH]c1=O,"20 µM [falling, partial curve, poor fit]"
12,COC(=O)c1cccc(Nc2c(-c3ccc(O)c(OC)c3)nc3nc[nH]n23)c1,"7.94 µM [falling, single point]"
13,COc1cccc(N2C(=O)CC(c3c[nH]c4ccccc34)C2=O)c1 (configuration not stated),"0.0794 µM [falling, full curve]"
14,Cc1ccc(-c2nc3cc(C(C)C)ccc3o2)cc1NC(=O)c1cccs1,"0.398 µM [falling, full curve]"
15,Cc1cccc(NC(=O)CSc2nc3ccc(NC(=O)c4ccco4)cc3s2)c1,"10 µM [falling, partial curve]"
16,Cc1ccc2nc(-c3ccc(O)cc3)c(Nc3ccc4c(c3)OCO4)n2c1,"12.6 µM [falling, partial curve]"
17,COc1cc(-c2nnc(SCC(=O)Nc3ccc(F)c(Cl)c3)o2)cc(OC)c1OC,"25.1 µM [falling, single point]"
18,C=CC(=O)OCC(CO)(COC(=O)C=C)COC(=O)C=C,"5.01 µM [falling, full curve]"
19,COc1cccc(C(=O)Nc2ccccc2OCc2cc(=O)n3cc(C)ccc3n2)c1,"39.8 µM [falling, single point]"
20,Cc1oc(-c2ccc(Cl)cc2)nc1CS(=O)CC(=O)NCc1ccc(Cl)cc1 (configuration not stated),"25.1 µM [falling, single point]"
21,O=C(c1ccco1)[C@@H]1[C@@H]2C(=O)N(c3ccc(Br)cc3)C(=O)[C@@H]2C2c3ccccc3C=CN21 (some centres not stated),"1.26 µM [falling, full curve]"

# Some of these compounds in order of molecular weight, high to low.
row,SMILES,AC50
5,CCCCN1CCCc2cc(CN(CCCN3CCOCC3)C(=O)Nc3ccc(OCC)cc3)ccc21,"6.31 µM [falling, single point]"
12,COC(=O)c1cccc(Nc2c(-c3ccc(O)c(OC)c3)nc3nc[nH]n23)c1,"7.94 µM [falling, single point]"
13,COc1cccc(N2C(=O)CC(c3c[nH]c4ccccc34)C2=O)c1 (configuration not stated),"0.0794 µM [falling, full curve]"
18,C=CC(=O)OCC(CO)(COC(=O)C=C)COC(=O)C=C,"5.01 µM [falling, full curve]"

# Following part

row,SMILES,AC50
1,CCCN1C=CC(=C2C(=O)c3ccccc3C2=O)C=C1,"3.98 µM [falling, full curve]"
2,COc1ccccc1N1CCN(C(CNC(=O)C(=O)NCCCN(C)C)c2cccnc2)CC1 (configuration not stated),"12.6 µM [falling, partial curve]"
3,CCOC(=O)C1=C(CS(=O)(=O)c2c(C)cc(C)cc2C)NC(=O)NC1c1cccc(OC)c1 (configuration not stated),"31.6 µM [falling, single point]"
4,COc1ccc(N(CC(=O)NCCc2cccc(C)c2)S(=O)(=O)c2c(C)nn(C)c2C)cc1,"12.6 µM [falling, partial curve]"
5,CC(C)(C)OC(=O)NCCc1nnc(S(=O)(=O)Cc2ccc(Cl)cc2Cl)o1,"2 µM [falling, full curve]"
6,CCOc1ccc(OCC)c(NC(=O)C2CCN(S(=O)(=O)c3ccc(Br)s3)CC2)c1,"25.1 µM [falling, partial curve]"
7,Cc1ccc(N2CCN(C(=O)Cc3c(C(=O)O)c(C)cn3C)CC2)c(C)c1,"31.6 µM [falling, partial curve]"
8,Cc1cccc(NC(=O)N2CCc3c(sc4c3CCCC4)C2c2ccc(F)cc2)c1 (configuration not stated),"2 µM [falling, full curve, poor fit]"
9,Cc1cc(C(=O)N2CCN(C(c3ccccc3)c3ccccc3)CC2)no1,"12.6 µM [falling, partial curve]"
10,CCc1ccc(NC(=O)C2CCN(C(=O)N3CC(CC)Oc4ccccc43)CC2)cc1 (configuration not stated),"39.8 µM [falling, single point]"
11,COc1cccc(NC(=O)CCNS(=O)(=O)c2ccc(Br)s2)c1,"20 µM [falling, partial curve]"
12,CCc1nn(CC(=O)N2CCCCC2)c(=O)c2cc3sccc3n12,"2.51 µM [rising, full curve, poor fit]"
13,COc1ccc(CNC(=O)Cc2csc3ccccc23)cc1OC,"7.94 µM [falling, partial curve]"
14,CC(NC(=O)c1cc(Sc2ccc(F)cc2F)nc2ccccc12)c1ccccc1 (configuration not stated),"12.6 µM [falling, partial curve]"
15,CCc1ccc2oc(-c3cc(N)ccc3O)nc2c1,"20 µM [falling, single point]"
16,Cc1nc2ncnn2c(Nc2ccc3c(c2)OCO3)c1Cc1ccccc1,"6.31 nM [rising, full curve, poor fit] [measured here: IkB-luc green channel]"
17,Cc1cn2c(=O)c(S(=O)(=O)NCCc3ccccc3)c(C)nc2s1,"39.8 µM [falling, single point]"
18,O=C(c1ccco1)N1CCN(C(=O)c2cc3sccc3n2Cc2ccccc2)CC1,"20 µM [falling, partial curve]"
19,O=C(O)CCC(=O)N1CCc2cc(S(=O)(=O)NC3CCCc4ccccc43)ccc21 (configuration not stated),"10 µM [falling, partial curve]"
20,Cc1cc(C)c(OCC(=O)Nc2cccc(NC(=O)c3ccco3)c2)c(Br)c1,"2.51 µM [falling, full curve]"
21,O=C(Cc1cccc([N+](=O)[O-])c1)NCc1nc2cccnc2n1Cc1ccc(F)cc1,"31.6 µM [rising, single point] [measured here: IkB-luc green channel]"

row,SMILES,AC50
1,CC(=O)c1cccc(NC(=O)C2CCCN(c3nnc(-n4cccc4)s3)C2)c1 (configuration not stated),"31.6 µM [falling, single point]"
2,COC(=O)c1ccccc1NC(=O)C1CCCN(S(=O)(=O)c2ccc(OC)cc2)C1 (configuration not stated),"15.8 µM [falling, partial curve]"
3,CCOC(=O)c1c(NC(=O)c2nn(CC)cc2Br)c(C#N)nn1-c1ccccc1,"12.6 µM [falling, partial curve]"
4,Cc1ccccc1-c1nc(CS(=O)(=O)CC(=O)N2CCN(c3ccccc3)CC2)c(C)o1,"25.1 µM [falling, single point]"
5,CCc1ccc2oc(-c3cccc(NC(=O)c4ccc(N5CCC(C)CC5)c([N+](=O)[O-])c4)c3)nc2c1,"12.6 µM [falling, partial curve]"
6,Cc1ccccc1CNC(=O)Cn1ncn2nc(-c3cccs3)cc2c1=O,"0.0398 µM [rising, full curve]"
7,CCOc1ccc(-c2nc(CSCC(=O)N3CCN(c4cccc(OC)c4)CC3)c(C)o2)cc1,"10 µM [falling, partial curve]"
8,Cc1cccc(CSc2cn(CC(=O)N3CCCC3)c3ccccc23)c1,"15.8 µM [falling, partial curve]"
9,CN(C)c1cc(O)c(C(=S)Nc2ccccc2)c(N(C)C)c1,"15.8 µM [falling, partial curve]"
10,Cc1cc(N2CCCCC2)nc2ccc(NC(=O)/C=C/c3ccccc3OC(C)C)cc12,"1 µM [falling, partial curve]"
11,Cc1ccc(NC(=O)c2oc3ccccc3c2NC(=O)c2cc3ccccc3o2)cc1,"6.31 µM [falling, partial curve]"
12,COC(=O)c1ccc(NC(=O)c2cc(S(=O)(=O)N3CCc4ccccc43)cn2C)cc1,"25.1 µM [falling, partial curve]"
13,CCOc1ccccc1NC(=O)Cn1cnc2onc(-c3ccc(F)cc3)c2c1=O,"31.6 µM [falling, single point]"
14,O=C(OCc1cc(=O)n2nc(C3CC3)sc2n1)c1ccc(F)cc1,"12.6 µM [falling, partial curve]"
15,COc1ccc(-n2c(=O)c3ccc(C(=O)NCc4ccc(C)cc4)cc3n(CC(=O)Nc3ccc(F)cc3)c2=O)cc1,"10 µM [falling, full curve]"
16,O=C(NCc1cccnc1)C1CCN(Cc2cc3ccccc3n2Cc2cccc(Cl)c2)CC1,"31.6 µM [falling, single point]"
17,CCOC(=O)c1cc(C)n(CC2CCC(C(=O)Nc3ccc(Cl)cc3)CC2)c1C (configuration not stated),"7.94 µM [falling, partial curve]"
18,CCC1CCc2nc3sc(C(=O)Nc4ccc(F)cc4F)c(N)c3cc2C1 (configuration not stated),"15.8 µM [falling, partial curve]"
19,O=C(Nc1ccc(CN2CCOCC2)cc1)c1cc2ccccc2o1,"20 µM [falling, single point]"
20,CC(=O)Nc1cccc(C(=O)NCc2ccc3c(c2)CCN3C(=O)c2ccccc2)c1,"15.8 µM [falling, single point]"
